# Results are given in words; binding and its absence hold for the method and conditions named. In cells and extracts the contact can be indirect. These calls come from enrichment with a bait or labelling near it, and not all partners need be listed.
# Sequences of proteins named here, by UniProt entry; tags and fusion partners are left off.
# UniProt Q9VQ93: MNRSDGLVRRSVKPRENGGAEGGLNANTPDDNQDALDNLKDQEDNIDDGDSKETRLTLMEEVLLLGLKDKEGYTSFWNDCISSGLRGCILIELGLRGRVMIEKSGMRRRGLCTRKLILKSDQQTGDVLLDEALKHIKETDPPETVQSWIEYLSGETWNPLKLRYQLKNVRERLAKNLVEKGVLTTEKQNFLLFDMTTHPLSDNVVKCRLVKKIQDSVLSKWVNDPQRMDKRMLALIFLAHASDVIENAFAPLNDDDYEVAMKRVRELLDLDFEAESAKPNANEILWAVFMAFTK
# B1: Slh (protein, UniProt Q24179 1-639)
# chain: MLTLRERQINAIKQMLNLNSQQPKALAAEPVWKILIYDRVGQDIISPIISIKELRELGVTLHVQLHSDRDSIPDVPAIYFCLPTDENLDRIQQDFSSGLYDVYHLNFLAPITRSKIENLAAAALHAGCVANIHRVYDQYVNFISLEDDFFILKHQQSDQLSYYAINRANTRDEEMEALMDSIVDSLFALFVTLGNVPIIRCPRNSAAEMVARKLEKKLRENLWDARANLFHMDATQAGGGVFSFQRPVLLLLDRNMDLATPLHHTWSYQALVHDVLDLGLNLVYVEDETASAGARKKPKACDLDRNDRFWMTHKGSPFPTVAEAIQEELESYRNSEEEIKRLKTSMGIEGESDIAFSLVNDTTARLTNAVNSLPQLMEKKRLIDMHTKIATAILNFIKARRLDSFFEIEEKVMSKQTLDRPLLDLLRDGEFGQAEDKLRLYIIYFICAQQLPESEQERLKEALQAAGCDLTALAYVQRWKGIMNRSPSISQATQYEGGGTKTVSMFTKLVSQGSSFVMEGVKNLVVKRHNLPVTKITEQVMECRSNAETDDYLYLDPKLLKGGEVLPKNRAPFQDAVVFMVGGGNYIEYQNLVDFIKQKQTSNVQRRIIYGASTLTNARQFLKELSALGGEIQSPTATS
# B2: εCOP (protein, UniProt Q9Y0Y5 1-306)
# chain: MSRQQNEEDTNSVLFDARNEYYIGNFMGSINFVLPEQGTAGPELLSYMYLSYLAIDSGRIVASDIKEGNSTPLQALRLVHEAFEQPSRTEELLEKLTDKVAGEEDETNIWHLATAIVYCHDGQFENALKILHGSTNLESMALSVQCLLRLQRVDLAKQLVAKMQEISDDATLTQLAQAWVALAQGTEQMQDAFHIYQEFCEKFKPTPALLNGQAVVHLGLERYEEADSVLRESLLKKHNDYDTLINLMVHAHLTGKPTEAITRNLEQLRQFYPKSDFVTDLDKKSAEFDRLCLQYDVEGGEKLLAV
# B3: Srp54k (protein, UniProt Q9V3D9 1-508)
# chain: MVLADLGRKITTALHSLSKATVINEEALNSMLKEICAALLEADVNIRLVKQLRENVRAVIDFDEMAGGLNKRRMIQSAVFKELVKLVDPGVKPYQPIKGKANVVMFVGLQGSGKTTTCTKLAYHYQKRNWKSCLVCADTFRAGAYDQVKQNATKARIPFYGSYTEIDPVVIAQDGVDMFKREGFEMIIVDTSGRHKQEESLFEEMLAVSNAVSPDNIIFVMDATIGQACEAQAKAFKDKVDIGSVIITKLDGHAKGGGALSAVAATQSPIIFIGTGEHIDDLEPFKTKPFVSKLLGMGDIEGLIDKVNELKLDGNDELLEKIKHGHFTIRDMYEQFQNIMKMGPFSQFMNMIPGFSQDFMTKGGEQESMARVKRMMTMMDSMSDNELDNRDGAKLFSKQPNRCVRVAQGAGVMEREVKELIAHYTKFSAVVKKMGGVKGLFKQGDMTKNVNPTQMAKLNQQIAKMIDPRMLQQMGGVGGIQNMMRQLQQGAAGGLGGLGNLMSGFGGK
# B4: Rab32 (protein, UniProt A1Z7S3 1-686)
# chain: MPNVDEQRGKAATKRAESEQSEEKGDRQEGDGDPKDESEEATAKIKGRSRFTAALRSLSKTKTKRERELDKSTDRETRSAEEEAQETPGELEDVASSISTDSGALGKTKKKSLTRRLLLGGLRKSGKTPKGRPHSLATSDDISVEHLETTPLPSPPGSPTSAGSSTLQITISGKKVEPSPAKKSGKSRPKSDTDYLTPAAEERKPRKKTTTTTVTTRDTSSSTRTTKLLVSKKKPQSPERESPSASPSPLITTTESTRDTPPRERAPAKPSRVQSASGTGAVRKSQSSSASSRKLELMQQQQQRGHRLNARPLAELANTEPQPSGQQSLDPSTSPPAAEDGVSSAESAQTIANPPPVVRFEVGSAVRSPLSAYEAALAAAASQQPNSNEELSDSSIRRLSFAQQQLILGDHDSIEGRRETLHYQSVASEYSNQDSGSEDDSEEQADTTEPENAKPMPAFGDLTMDQEMEPAIMTSTSDKREHLYKILVIGELGTGKTSFIKRYVHQFFSQNYRATIGVDFALKVLQWDANTIVRLQLWDIAGQERFGNMTRVYYKEAVGAFIVFDVTRSGTFDCVSKWKEDLDSKVQLPDGSPIPCILLANKCDQEKQGIITQPEKMDEYVRENGFAGWFETSAKENINIDEAARALVNKILINDKLISADLADGDKFNLSAADATGSDAKNKCSC
# B5: Rab5 (protein, UniProt Q9V3I2 1-219)
# chain: MATTPRSGGASGTGTAQRPNGTSQNKSCQFKLVLLGESAVGKSSLVLRFVKGQFHEYQESTIGAAFLTQTICIEDTVVKFEIWDTAGQERYHSLAPMYYRGAQAAIVVYDIQNQDSFQRAKTWVKELHKQASPNIVIALAGNKADLSNIRVVEFDEAKQYAEENGLLFMETSAKTGMNVNDIFLAIAKKLPKNDGANNQGTSIRPTGTETNRPTNNCCK
# B6: αCOP (protein, UniProt Q9W0B8 1-1234)
# chain: MLTNFESKSARVKGLSFHPKRPWILVSLHSGVIQLWDYRMHTLLEKFDEHDGPVRGVAFHQQMPLFVSGGDDYKIKVWNYKQRRCIFTLLAHLDYVRTVAFHHEYPWILSASDDQTIRIWNWQSRNCICVLTGHNHYVMCAQFHPTEDQIVSASLDQTVRVWDISGLRKKNVAPGPGGLDDHLKGHPGATDLFGQADAVVKHVLEGHDRGVNWASFHPTLPLIVSGADDRLVKLWRMNEYKAWEVDTCRGHYNNVSSVLFHPRQDLILSNGEDRSIRVWDMTKRQCLFTFRRDNERFWILTAHPTLNLFAAGHDGGMVVFKLERERPAYAVHGNILYYVKERFLRKLDFTTTKDTVVMQLRPGKSPVYSMSYNPALNAVLICTRTNNLENSTYDLCQIPKDTESQSESDSKRSSGITAIWVARNRFAVLDRNQQLVIKNFKNEVTKKLPTFCEEIFYAGTGMLLIRDPEFVTLYEVQRLVSVGSIKLAKCRYVVWSPDMSLVALLCKHSVTICDRRLQYLCTVQENCRVKSGAWDESGVFIYTTSNHIKYAITNGDHGIIRTLDLPIYLTRVKGNQVFCLDRECRTRVLHIDPTEYKFKLALIQRKYDEVLHMVRNARLVGQSIIAYLQQKGYPEVALHFVKDEKTRFGLALECGNIEIALEAAKALDDKDCWDRLGQSALLQGNHQVVEMCYQRTKNFDKLSFLYLITGNLEKLKKMNKIAEIRKDVSAQYQGALLLGDVKERVNILKNCGQLSLAYLTAATHGFDELTESLGESITSQGNSLPEVNPNAQLLQPPVPIQQLETNWPLLSVSKGFFEGAMVTRAGSSATARQALNINADAALLDEHNGGGDGWGADADLGLDEDGDDEMHDALSNDGDGGAGGEEGAGWDVGDDDLVVPEELASKIKASALDSNYYAAPNKGLSPAQQWANNSPLVLDHVKAGSFETAFRLLHDQLGVVNFQPFKTLFLQNYACSRTSYTANPNLQSLSGYPLRNYSETNIKLQRPAVGIKLNDLVARLQAGYQLTTSGKFSEAVEKFHSILISIPLLVVDTKLDAAEAQQLLRICAEYIVGLKMETVRKGMPKSTLEEQKRLCEMAAYFTHCKLQPVHQILTLRTALNMFFKLKNYKTAASFARRLLELAPRPDVAQQVRKILQACEVNPVDEHQLQYEEFNPFTICGISWKPLYRGKPEVTCPFCSSSFDPQFKGNLCTVCEVSQIGKDSIGLRISNLQFR
# B7: βCOP (protein, UniProt P45437 1-964)
# chain: MTSQVPCYTIINSPDLEVTNEMQLKRDLEKGDTNVKIETLKRVIKLLLNGERYPGLIMTIIRFVLPVQNHTIKKLLLIFWEIVPKTSADGKLLQEMILVCDAYRKDLQHPNEFLRGSTLRFLCKLKEPELLEPLMPAIRACLDHRHSYVRRNAVLAIFTIYKNFDWLVPDGPELIASFLDTQQDMSCKRNAFLMLLHADQERALNYLASCIDQVHTFGDILQLVIVELIYKVCHANPAERSRFIRCIYNLLNSSSNAVRYESAGTLITLSLAPTAIKAAASCYIELVVKESDNNVKLIVLDRLVAMKEHEGMEKVMQDLVMDVLRVLAAPDIEVRRKTLALALDLVYSRNIGEMVLVLKKEVAKTHNVEHEDTGKYRQLLVRTLHTCSIKFPDVAANVIPVLVEFLSDTNELAAADVLIFIREAIQKFPALRALIIEHLIEAFPQIKSSKIHRAAVWILGEYVEGSQILEVIAVIQQTLGEVPMVEAEQRRLAGDQTEEQKQQQGSAGGNAAGSAAEGSGSGNASNKVTSDGTYATQSAYSLAPVAKAEKRPPLRQYLMDGDFFIGAALSATLTKLALRYAELETEARAQNRLTTQVMLIMSSILHLGKSGFPSKPITNDDTDRIFVCLRTLSERTPEAISVFTLYCREALGKMLDAQHDEDQRMLKEKQKATAKVQPDDPVLFAQLSNGRDNQLGENVFESSLNQALAGSKNAQLSDVASPNSKLNKVTQLTGFSDPVYAEAYVNVNQYDIVLDVLIVNQTNDTLQNCTLELATLGDLKLVERPHPVVLAPHDFCNIKANVKVSSTENGIIFGNIVYETALNTNVVVLNTIHIDIMDYIIPASCTDTEFRQMWQDFEWENKVTVNTSFTDLHEYLKHLLKSTNMKCLTPEKALSGQCGFMAANMYAKSIFGENALANLSIEKPVDDPDSKVTGHIRIRAKSQGMALSLGDKISSSQKQSVQAA
# B8: Rab10 (protein, UniProt O15971 1-204)
# chain: MAKKTYDLLFKLLLIGDSGVGKTCILFRFSDDAFTSTFISTIGIDFKIKTVELRGKKIKLQIWDTAGQERFHTITTSYYRGAMGIMLVYDITNEKSFENIVKWLRNIDEHANEDVEKMILGNKCDMTDKRVVNKERGEAIAREHGIRFMETSAKSNINIERAFCELAEAILDKTSGRESAENQERVIIDRRNQEKAPGYSKCCA
# B9: Rab11 (protein, UniProt O18335 1-214)
# chain: MGAREDEYDYLFKVVLIGDSGVGKSNLLSRFTRNEFNLESKSTIGVEFATRSIEVDGKTIKAQIWDTAGQERYRAITSAYYRGAVGALLVYDIAKHLTYENVERWLRELRDHADQNIVIMLVGNKSDLRHLRSVPTDEAKLFAERNGLSFIETSALDSTNVETAFQNILTEIYRIVSQKQIRDPPEGDVIRPSNVEPIDVKPTVTADVRKQCCQ
# B10: Cog7 (protein, UniProt Q9VAD6 1-742)
# chain: MDVSALSETTFSPAEWINANYKKFVEENGRDDSEAASAFIRSYVAKLQLYIFNVNNAVEESSRQVVASMPRIAKESAALQADVHRLQEKMSAMRLEVAAVQSETGECMATLERLNTKSQKLQVAKESLQESDGWGNLLAELEDGFERNDLKGVCDKLIALQKSLHAQEQLPGHAERQTQVEDFKNRLEALASPSVVQCFAEGNTEQAQHFVQIFTSIQRLPQLQQYYRAVQKNFWQQQWKQTLELQGTESQPQQQQFLTLYYDQLLEHCQRQVKWCSNLFGENSPQPFLVIAELLPALQPTRDAHILQLLKTSNERLEMLALFAKVNHSFVLHLNSLLEQSHITLSEELHRLLGEAIFEYFHKFIQQYPRLEETQLSTQVDRLSSNQATPSDGVRHLEESTRKLYEWLKEACERCASITSDLALCKLITLLNGIFKRQLESFGRIQRQIGLSLGSSSYAAQSENWSLLQYTMSQLQCLADFQVQLHQFEQDLHTRMVMLSNRLTKPSNRGPITIFQTCDHAARTQLLNSIADYQQKKSEATDSLGIFPQIYATLKSHFADTHDITLNILLQPIETHLAHIRPPVQDHAASGIEMPSFSFAPQESITQIGQYLLTLPQHLEPLLLSPSSLLKQALEVCNIKYTQAIPCADVLLSLVVEQCCVLYVTQILQIKSLPSSAATQLSVDIEYLSNVLEELGLSINLQLSQILTLLKAAPDQYLTLSSGCEPRLVTAIRQMRNIISTQ
# Target: dGOLPH3-mRFP (Drosophila) (UniProt Q9VQ93)
# Test: affinity purification with mass spectrometry; RFP-trap beads on lysate of 3000 adult testes expressing dGOLPH3-RFP (RFP alone as control); lysis buffer 25 mM Tris-HCl pH 7.4, 150 mM NaCl, 1 mM EDTA, 1% NP-40; washes at 4 °C; nanoLC-MS/MS
row,binding,Binder
1,binds,B1
2,binds,B2
3,binds,B3
4,binds,B4
5,binds,B5
6,binds,B6
7,binds,B7
8,binds,B8
9,binds,B9
10,binds,B10

# From PMC8468827
